Library screen at single concentrations

Protein sequences, listed by entry. Tags and fused reporters are not part of them.
UniProt P9WFT3, whole entry: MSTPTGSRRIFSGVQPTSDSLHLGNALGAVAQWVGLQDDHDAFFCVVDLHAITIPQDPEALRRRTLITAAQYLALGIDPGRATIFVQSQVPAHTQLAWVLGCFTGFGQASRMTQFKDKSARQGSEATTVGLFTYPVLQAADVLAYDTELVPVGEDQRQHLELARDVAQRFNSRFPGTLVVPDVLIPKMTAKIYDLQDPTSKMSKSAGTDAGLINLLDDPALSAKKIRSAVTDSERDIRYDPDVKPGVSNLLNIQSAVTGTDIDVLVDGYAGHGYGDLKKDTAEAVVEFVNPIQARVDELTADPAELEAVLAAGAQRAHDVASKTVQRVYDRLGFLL
UniProt P9WNZ1, whole entry: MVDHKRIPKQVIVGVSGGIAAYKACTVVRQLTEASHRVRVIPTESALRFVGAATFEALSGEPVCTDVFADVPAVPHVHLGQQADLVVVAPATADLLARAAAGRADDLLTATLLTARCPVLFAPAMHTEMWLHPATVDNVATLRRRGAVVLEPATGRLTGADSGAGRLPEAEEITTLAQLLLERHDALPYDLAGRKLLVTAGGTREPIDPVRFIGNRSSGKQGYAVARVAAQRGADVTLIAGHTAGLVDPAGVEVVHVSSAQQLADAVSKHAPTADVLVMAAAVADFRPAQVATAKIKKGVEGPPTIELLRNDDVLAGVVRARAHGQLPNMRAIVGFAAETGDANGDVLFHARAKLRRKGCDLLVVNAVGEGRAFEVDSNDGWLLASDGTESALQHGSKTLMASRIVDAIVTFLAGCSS

Measurements from “University of Dundee, Small-Polar-MMV Screening Library” (2021), ChEMBL document CHEMBL3988442.

Results are given as percent effect.
How 0% and 100% were set is not recorded. Most values in the screen are low, and negative values occur.
The compounds are a random part of those screened.
A dash means the value is not listed here; it may have been measured.

MtTrpRS: 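Tryptophan-tRNA ligase, Mycobacterium tuberculosis (UniProt P9WFT3). Enzyme assay of tryptophanyl-tRNA synthetase; the read-out is not stated. Tested at 10 µM. Higher most likely means stronger inhibition; the record gives no direction and few retests gave an IC50. About 65,000 compounds were tested under these conditions; 0.098% (about 64) showed 50% or more at least once.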
CoaBC: 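Enzyme assay of CoaBC with a phosphate dye (Biomol Green) read at 650 nm. Target: Coenzyme A biosynthesis protein CoaBC, Mycobacterium tuberculosis (UniProt P9WNZ1). Concentration: 30 µM. Direction is inferred from only a few compounds that gave an IC50; most scored high, so higher reads as stronger inhibition. Most strong results did not repeat in a second test. About 67,000 compounds were tested under these conditions; 0.06% (about 40) showed 50% or more at least once.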

| # | SMILES | MtTrpRS | CoaBC |
|---|---|---|---|
| 1 | `CSc1ccc(CN(CCO)C(=O)CCc2ccc(O)cc2)cc1` | 1.632 | 0.1266 |
| 2 | `Cc1nc(C2CCCN(C(=O)CCCn3ccnc3C)C2)no1` (stereo not shown) | -4.396 | 0.241 |
| 3 | `O=C(Cc1n[nH]c2ccccc12)N1CCCC1Cn1cccn1` (stereo not shown) | -2.596 | -3.409 |
| 4 | `Clc1cccc(Cl)c1-c1nnc(CNCCn2cccn2)o1` | -3.095 | 5.249 |
| 5 | `Cc1ccc(C(=O)N(C)CC(=O)N2CCCC2)c(C)c1` | 2.053 | 4.054 |
| 6 | `COc1c(F)ccc(C(=O)N2CC[C@H](CO)[C@@H](O)C2)c1F` | -6.804 | 7.54 |
| 7 | `O=C1CC(c2ccc(C(=O)O)cc2)c2ncn(-c3cccc(Cl)c3)c2N1` (stereo not shown) | 3.99 | 19.91 |
| 8 | `CN(Cc1cn2c(n1)CN(C(=O)c1cccn1C)CC2)Cc1ccco1` | -3.108 | -2.316 |
| 9 | `COc1cc(CN2CCCC[C@]3(C)NC(=O)CC[C@H]23)ccc1F` | -4.274 | -1.37 |
| 10 | `CCc1cc(N2CCCC(CC)(C(=O)O)C2)nc(N2CCOCC2)n1` (stereo not shown) | 0.6274 | 4.854 |
| 11 | `CCS(=O)(=O)N1Cc2ccnn2CC(c2nc(C)no2)C1` (stereo not shown) | -7.214 | 2.24 |
| 12 | `O=C(O)c1ncccc1OCC(F)(F)F` | 0.5146 | -7.983 |
| 13 | `CCn1cc(CN2CCCN(C(=O)c3sccc3OC)CC2)cn1` | -10.09 | -0.5249 |
| 14 | `CCNC(=O)Cc1ccc(-c2cccc3c2CCNC3)cc1` | -1.929 | -2.795 |
| 15 | `COC[C@@H]1CC[C@H]2[C@H](CCN2S(=O)(=O)c2cccc(F)c2)O1` | -2.764 | 3.185 |
| 16 | `CSc1ccccc1C(=O)N1CCN(C)C2(CCC(=O)N(C)CC2)C1` (stereo not shown) | -2.036 | -1.975 |
| 17 | `COCCn1cc(C(=O)N2CCCC2c2cc(C)no2)ccc1=O` (stereo not shown) | 1.006 | 6.183 |
| 18 | `Cc1ccc(CN2CCCn3c(nc(Cn4ccnc4)cc3=O)C2)s1` | 3.099 | -1.486 |
| 19 | `NC(=O)c1cc2c(nc1-c1ccc3c(c1)OCCO3)CCC2` | 0.2894 | 0.6211 |
| 20 | `CC(C)c1cc(C(=O)NCCN2CCCS2(=O)=O)n[nH]1` | 2.747 | 4.404 |
| 21 | `CN(CC(C)(C)O)C(=O)Nc1ccc(F)c(-n2cccc2)c1` | -2.579 | -3.586 |
| 22 | `COCCCN1CC2(CCN(Cc3cc(C(C)C)no3)CC2)CC1=O` | -1.812 | 0.1206 |
| 23 | `Cc1noc(C2CCCN(C(=O)c3ccc(Br)o3)C2)n1` (stereo not shown) | 3.362 | 3.077 |
| 24 | `OC1(CN2CCC(Cc3ncccn3)CC2)CCCCC1` | -2.044 | -0.9709 |
| 25 | `CSCCCN1CCc2nc(N(C)C)nc(N3CCC(O)CC3)c2C1` | -3.254 | -32.19 |
| 26 | `Cc1ccc(CN2CCN(C3CCSCC3)CC2CCO)o1` (stereo not shown) | -5.02 | 4.854 |
| 27 | `CN1CCN(CCOc2ccc(NC(=O)c3cnc[nH]3)cc2)CC1` | -1.125 | -0.6369 |
| 28 | `COc1ccc(Oc2cccc(C#N)n2)cc1CN1CCCC1` | 2.949 | 2.211 |
| 29 | `F[C@@H]1CN(CC2CCCCC2)C[C@@H]1OCc1nc2ccccc2o1` | -2.959 | 7.285 |
| 30 | `Cn1nc(-c2ccccc2)c(Br)c1C(=O)O` | -0.6303 | 1.263 |
| 31 | `CCN(c1ccc(C(=O)NCCN2CCOCC2)cc1)S(=O)(=O)CC` | -0.5424 | 2.405 |
| 32 | `O=C(Cc1cccs1)N1CCOCC1c1ccccc1` (stereo not shown) | -1.867 | -1.98 |
| 33 | `CNS(=O)(=O)CC(=O)NCc1cc2c(s1)CCC(C)(C)C2` | -3.783 | 3.949 |
| 34 | `CCOCCN1CCN(CCOCC(F)(F)F)CC1` | 5.376 | 14.01 |
| 35 | `CCN(Cc1ccc2c(c1)OCCO2)C(=O)Cn1cccnc1=O` | -4.946 | 1.044 |
| 36 | `COc1ccc(NC(=O)N(CCO)Cc2ccsc2)cc1` | 2.151 | -10.68 |
| 37 | `CCSc1nc(N)c(NC(=O)c2ccc(OC)c(OC)c2)c(=O)[nH]1` | 0.9878 | -1.48 |
| 38 | `COCCSc1ccc(-n2cccn2)nn1` | -5.915 | 3.89 |
| 39 | `CCn1nc(C(C)C)cc1C(=O)N1CC(OCc2ccccc2F)C1` | -1.308 | 4.733 |
| 40 | `Cc1nc(CN2C[C@@H]3CN(C(=O)c4cccn4C)C[C@@H]3C2)cs1` | -2.326 | 2.188 |
| 41 | `CCn1nc(CC(C)C)cc1C(=O)N1CCN([C@H]2CCCC[C@@H]2O)CC1` | -4.44 | 1.815 |
| 42 | `CCOc1ccccc1CSc1nnc(CC2CCS(=O)(=O)C2)n1C` (stereo not shown) | -1.006 | -3.965 |
| 43 | `CN(C)C(=O)[C@H]1C[C@@H]2CN(S(=O)(=O)Cc3ccccc3)C[C@H]1O2` | 1.586 | 4.145 |
| 44 | `Cc1ccc(-c2cn[nH]c2C2CCCN(c3cnccn3)C2)cc1` (stereo not shown) | 6.925 | 10.06 |
| 45 | `CN(C)S(=O)(=O)N1CCN(C(=O)c2cc(-c3ccccc3)[nH]n2)CC1` | 0.8541 | -9.112 |
| 46 | `Cn1cccc1C(=O)NC[C@]12COC[C@H]1CN(Cc1nccs1)C2` | 5.118 | 2.757 |
| 47 | `CC(C)Nc1ccnc(N2Cc3cnc(C(C)(C)C)nc3C2)n1` | -5.897 | -0.9828 |
| 48 | `CC(C)CC(Cc1cccc(Br)c1)C(=O)O` (stereo not shown) | 1.694 | 6.368 |
| 49 | `CN(C)C(=O)[C@H]1C[C@@H]2CN(S(=O)(=O)c3ccccc3)C[C@H]1O2` | -5.514 | 4.315 |
| 50 | `CCS(=O)(=O)c1ncc(CN2CCN(C)CC2)n1CCc1ccccc1` | -1.206 | 1.737 |
| 51 | `CN1CCc2onc(CNc3ncccn3)c2C1` | 11.44 | 0.3807 |
| 52 | `COCCn1cc(C(=O)N2CCCC2c2cccc(F)c2)ccc1=O` (stereo not shown) | -1.161 | 2.345 |
| 53 | `Cc1cc(C(=O)NCC2CCS(=O)(=O)C2)ccc1NC(=O)c1ccco1` (stereo not shown) | 0.5161 | 1.347 |
| 54 | `O=C(NCC1CCCO1)c1cc(COc2ccccc2F)[nH]n1` (stereo not shown) | 0.6717 | 6.695 |
| 55 | `CS(=O)(=O)NCCC(=O)N1CCN(S(=O)(=O)c2ccc(Br)cc2)CC1` | 8.101 | 3.018 |
| 56 | `Cc1ccccc1N1CC2(CCN(c3nncs3)C2)CC1=O` (stereo not shown) | -2.813 | 3.951 |
| 57 | `O=C(NCCN1CCCCCC1)c1coc(COc2ccc(F)cc2)n1` | 4.524 | -35.7 |
| 58 | `CC(C)C[C@H](NC(=O)Nc1ccc(F)c(Cl)c1)C(=O)O` | 0.4902 | -0.2525 |
| 59 | `COc1nn(C)c2c1CCCN(C(=O)c1cccn1C)C2` | -0.7712 | 0.6402 |
| 60 | `COCCN1C(=O)CC(N2CCN(c3ccc(OC)cc3)CC2)C1=O` (stereo not shown) | -2.085 | 5.485 |
| 61 | `c1ccc(CN2CCOC3(COCCN(c4ncccn4)C3)C2)nc1` (stereo not shown) | 2.045 | -2.917 |
| 62 | `Cc1ccc(=O)n(CC(=O)N(C)Cc2csc(-c3cccs3)n2)n1` | 1.774 | 4.305 |
| 63 | `COc1cc(F)ccc1N1CCN(Cc2nc(C)c(C)o2)CC1` | 0.6192 | - |
| 64 | `Cn1cc(CN2CCC3(CCCN3S(C)(=O)=O)CC2)cn1` | 7.574 | -0.9009 |
| 65 | `O=C(c1ccccc1)C1CCN(c2cncc(-n3cccn3)n2)CC1` | -3.939 | 3.571 |
| 66 | `CC(Cn1cc(Br)cn1)C(=O)Nc1ccc(Cl)cn1` (stereo not shown) | 1.434 | 2.641 |
| 67 | `O=C(COCC1CC1)Nc1ncn(CC(=O)N2CCCCCC2)n1` | -0.624 | 8.184 |
| 68 | `C1CCN(CCOC2CCNC2)CC1` (stereo not shown) | -0.1833 | -13.82 |
| 69 | `Fc1cnc(N2CCCn3c(nnc3Cn3ccnc3)C2)nc1` | -2.182 | -3.382 |
| 70 | `COc1cc(NCCCSc2nnc(C)s2)ncn1` | 2.21 | -4.084 |
| 71 | `O=C(C1CCOC1)N1CCC2(CCN(Cc3nccs3)C2)CC1` (stereo not shown) | 0.9931 | 3.854 |
| 72 | `Cc1cccc(Nc2cc(C)nc(C3CCN(C(C)C)C3)n2)n1` (stereo not shown) | 12.44 | 2.891 |
| 73 | `CN(Cc1cncnc1)[C@H]1CN(C(=O)c2ccc[nH]2)[C@@H]2CCCO[C@@H]21` | - | 2.963 |
| 74 | `Cn1c(C(=O)Nc2nc[nH]n2)cc2ccccc21` | -0.7498 | 0 |

The last 9 entries again:

CC(Cn1cc(Br)cn1)C(=O)Nc1ccc(Cl)cn1 (stereo not shown) read MtTrpRS: 1.434%; CoaBC: 2.641%.
O=C(COCC1CC1)Nc1ncn(CC(=O)N2CCCCCC2)n1 read MtTrpRS: -0.624%; CoaBC: 8.184%.
C1CCN(CCOC2CCNC2)CC1 (stereo not shown) read MtTrpRS: -0.1833%; CoaBC: -13.82%.
Fc1cnc(N2CCCn3c(nnc3Cn3ccnc3)C2)nc1 read MtTrpRS: -2.182%; CoaBC: -3.382%.
COc1cc(NCCCSc2nnc(C)s2)ncn1 read MtTrpRS: 2.21%; CoaBC: -4.084%.
O=C(C1CCOC1)N1CCC2(CCN(Cc3nccs3)C2)CC1 (stereo not shown) read MtTrpRS: 0.9931%; CoaBC: 3.854%.
Cc1cccc(Nc2cc(C)nc(C3CCN(C(C)C)C3)n2)n1 (stereo not shown) read MtTrpRS: 12.44%; CoaBC: 2.891%.
CN(Cc1cncnc1)[C@H]1CN(C(=O)c2ccc[nH]2)[C@@H]2CCCO[C@@H]21 read CoaBC: 2.963%.
Cn1c(C(=O)Nc2nc[nH]n2)cc2ccccc21 read MtTrpRS: -0.7498%; CoaBC: 0%.